This experiment in a line: IkB Signaling. The conditions noted are these: ABC-DLBCL IkBa-CBG/CBR dual luciferase ratio (green luciferase fused to IkBa over red control in OCI-Ly3 lymphoma cells), 4 h. The procedure, abridged:
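In this assay, an IκBα–CBG68 fusion accumulates when IKK-driven degradation is blocked; native CBR normalizes for cell number. OCI-Ly3 cells were treated 4 h with compound and doxycycline, then green and red light read after Chroma-Glo addition.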

The mark [1] stands for this setting: measured here: control luc red channel unless noted.

The list shows a part of the results. The main result of the screen is listed elsewhere. These columns were measured beside it and carry no call. The list favours compounds with an active or inconclusive main result. The note in brackets gives the kind of curve behind each potency; many fits are weak.

Usually AC50 stands for the midpoint of the concentration-response curve, whichever way the signal moves. Regarding `COC(=O)c1sc(-c2ccccc2)cc1NC(=O)Nc1ccccc1Cl`, the AC50 under setting [1] is 25.1 µM [falling, partial curve].

On to `CCOC(=O)N1CCc2c(sc3c2c(=O)n(Cc2ccccc2)c(=O)n3CC(=O)Nc2cccc(C)c2)C1`, for which the AC50 under setting [1] was 15.8 µM [falling, single point].

As to `CCCCC(=O)Nc1cc(-c2nc3cccnc3s2)ccc1C`, the AC50 under setting [1] was 25.1 µM [falling, single point].

Consider `CN(C)S(=O)(=O)c1ccc(C(=O)Nc2c(C(=O)Nc3ccc(F)cc3)oc3ccccc23)cc1`, for which, under setting [1], the AC50 is 25.1 µM [falling, single point].

In the case of `CCOc1ccc(NC(=O)CSc2ncnc3c2sc2ccccc23)cc1`, the AC50 under setting [1] was 20 µM [rising, single point].

With `COc1ccccc1C(=O)Nc1c(C(=O)N2CCN(c3ccccc3F)CC2)oc2ccccc12`, the AC50 under setting [1] is 31.6 µM [falling, single point].

On to `Cc1ccc(CNC(=O)c2ccc3c(c2)NC(=O)C(CS(=O)(=O)Cc2ccc(F)cc2)N3)cc1` (centres undefined), for which the AC50 under setting [1] is 20 µM [falling, single point].

On to `Cc1ccc(NC(=O)Cn2c(=O)n(Cc3ccco3)c(=N)c3c4c(sc32)COC(C)(C)C4)cc1`, for which, under setting [1], the AC50 was 12.6 µM [falling, partial curve].

For the molecule `CC(C)(C)c1ccc(C(=O)Nc2ccc(C(=O)OCc3cc(=O)n4ccsc4n3)cc2)cc1`, the AC50 under setting [1] was 7.94 µM [falling, full curve].

In the case of `Cc1onc(-c2ccccc2)c1C(=O)Nc1sc2c(c1C(N)=O)CCC2`, the AC50 under setting [1] is 31.6 µM [falling, single point].

`Cc1cc(NC(=O)c2cc(-c3cccnc3)nc3c(C)c(C)ccc23)no1`: the AC50 under setting [1] was 12.6 µM [falling, partial curve].

On to `Cc1cccc(C2C=C(c3ccc(F)cc3)Nc3nc4ccccc4n32)c1` (centres undefined), for which the AC50 under setting [1] is 20 µM [falling, single point].

Consider `Cc1ccc(NC(=O)c2cccc(OCc3c(C)noc3C)c2)c(C)c1`, for which the AC50 under setting [1] is 39.8 µM [falling, single point].

Regarding `CCOc1ccc(Cn2c(CNS(=O)(=O)c3ccc([N+](=O)[O-])cc3)nc3cccnc32)cc1`, the AC50 under setting [1] was 0.794 µM [rising, full curve].

As for `COc1ccc(C(=O)NCCSc2c(C)[nH]c3ccccc23)cc1`, the AC50 under setting [1] is 12.6 µM [falling, partial curve].

In the case of `Cc1ccc(NC(=O)Nc2nnc(SCC(=O)N3CCC(C)CC3)s2)cc1`, the AC50 under setting [1] was 15.8 µM [falling, partial curve].

With `COc1ccc(-n2cc(C(=O)NC(C)c3ccccc3)c3ccccc3c2=O)cc1` (centres undefined), the AC50 under setting [1] was 25.1 µM [falling, single point].

Consider `CCOC(=O)c1ccc(-c2c(C(=O)OCC)oc3cc(O)c(CC)cc3c2=O)o1`, for which, under setting [1], the AC50 is 15.8 µM [falling, partial curve].

Take `O=C(NC1CCCC1)c1ccc(CSc2nc3ccncc3n2Cc2ccc(F)cc2)cc1`: the AC50 under setting [1] was 1.26 µM [falling, full curve].

In the case of `COc1ccc(C(=O)NCCn2cc(SCC(=O)NCc3ccco3)c3ccccc32)cc1`, the AC50 under setting [1] was 15.8 µM [falling, partial curve].

As to `CCN1CCN(c2cc(C)c3cc(NC(=O)/C=C/c4cccc(Cl)c4)ccc3n2)CC1`, the AC50 under setting [1] is 25.1 µM [falling, partial curve].

`O=C(Nc1ccc(NC(=O)c2ccco2)nc1)c1ccccn1`: under setting [1], the AC50 is 12.6 µM [falling, partial curve].

For `Cc1ccc(NC(=O)Cn2cc(S(=O)(=O)N3CCCC3)c(S(=O)(=O)N3CCCC3)c2)cc1C`, under setting [1], the AC50 was 31.6 µM [falling, single point].

Turning to `CCOc1ccc(NC(=O)c2ccc(-c3cccc(Cl)c3C)o2)cc1`, the AC50 under setting [1] was 3.98 µM [falling, partial curve].

As for `COc1cccc(CNC(=O)NCc2noc3ccc(C)cc23)c1`, the AC50 under setting [1] was 25.1 µM [falling, single point].

Consider `Cc1occc1-c1nnc(SCC(=O)Nc2ccccc2)n1Cc1ccccc1`, for which the AC50 under setting [1] is 15.8 µM [falling, partial curve].

For the molecule `COc1ccccc1-c1cc(C(F)(F)F)nc(S(=O)(=O)CCCC(=O)Nc2ccc(F)c(Cl)c2)n1`, the AC50 under setting [1] is 3.16 µM [falling, partial curve].

On to `COc1ccc(C(=O)N2CCC(c3c[nH]c4ccccc34)(c3c[nH]c4ccccc34)CC2)cc1`, for which, under setting [1], the AC50 was 12.6 µM [falling, partial curve].

Consider `COc1ccccc1CNC(=O)c1oc2c(c1C)-c1nn(Cc3ccc(Cl)cc3)cc1CC2`, for which the AC50 under setting [1] was 12.6 µM [falling, partial curve].

Regarding `Cc1nc2nc(SCC(=O)NCc3ccccc3)nn2c(C)c1Cc1ccccc1`, the AC50 under setting [1] is 6.31 µM [falling, partial curve].

For `CC(C)CC(=O)Nc1ccc(Cl)c(-c2nc3ccccc3[nH]2)c1`, the AC50 under setting [1] was 25.1 µM [falling, partial curve].

As for `COc1ccc(OC)c(CNC(=O)CN2C(=O)CCn3nc(-c4cn(C)c5ccccc45)cc32)c1`, the AC50 under setting [1] is 15.8 µM [falling, partial curve].

Take `N#Cc1ccc(NS(=O)(=O)c2ccc(-c3cnc(C4CC4)o3)cc2)cc1`: under setting [1], the AC50 is 25.1 µM [falling, partial curve].

Take `CC1(C)Cc2cccc(OCC(=O)Nc3nccs3)c2O1`: the AC50 under setting [1] is 25.1 µM [falling, single point].

Turning to `COc1ccccc1NC(=O)CSC1=NC(=O)C(NC(C)=O)C(=O)N1` (centres undefined), the AC50 under setting [1] is 3.16 µM [falling, full curve].

Regarding `Cc1ccc(C)n1-c1nnc(N2CCCC(C(=O)NCc3ccccc3)C2)s1` (centres undefined), the AC50 under setting [1] is 20 µM [falling, partial curve].

For `Cc1ccc(NC(=O)CCc2c(C)nc3nc(C)nn3c2C)c(Cl)c1`, the AC50 under setting [1] is 25.1 µM [falling, partial curve].

Consider `CNC(=O)c1ccc(Nc2nnc(-c3ccc(C)c(S(=O)(=O)N4CCOCC4)c3)c3ccccc23)cc1`, for which, under setting [1], the AC50 was 12.6 µM [falling, partial curve].

Turning to `COc1ccc(C2(O)CC3CCC(C2)N3c2cc(C)nc(-c3ccccc3)n2)cc1` (centres undefined), the AC50 under setting [1] is 12.6 µM [falling, partial curve].

`Cc1ccc(N2CC(NC(=O)CCc3ccccc3)CC2=O)cc1` (centres undefined): the AC50 under setting [1] was 0.794 µM [falling, partial curve].

Take `COc1cccc(CSc2nc3n(n2)C(c2cccnc2)C(C(=O)Nc2ccccc2C)=C(C)N3)c1` (centres undefined): the AC50 under setting [1] is 39.8 µM [falling, single point].

For `COc1ccccc1NC(=O)CN(Cc1ccco1)C(=O)c1cccs1`, under setting [1], the AC50 is 10 µM [falling, partial curve].

Turning to `Cc1nc2cc(C(=O)O)ccc2n1-c1ccc(C(C)C)cc1`, the AC50 under setting [1] is 3.16 µM [rising, partial curve].

Regarding `Cc1cccc(N2CCN(C(=O)Cn3c(=O)c4cccn4c4ccc(F)cc43)CC2)c1C`, the AC50 under setting [1] was 25.1 µM [falling, single point].

Regarding `O=c1cc(-c2ccccc2)[nH]c2nc3ccccc3n12`, the AC50 under setting [1] is 0.002 µM [falling, full curve].

For `COc1ccccc1CNC(=O)CCC1N=C2c3ccccc3N=C(SCC(=O)NCCc3ccc(OC)c(OC)c3)N2C1=O` (centres undefined), the AC50 under setting [1] is 0.631 µM [rising, full curve].

Take `CCc1ccc(-c2cc(C)no2)cc1S(=O)(=O)Nc1ccc(Cl)cc1`: the AC50 under setting [1] was 25.1 µM [falling, single point].

For the molecule `COc1ccc(-c2noc(-c3ccc(NC(C)c4ccccc4)c([N+](=O)[O-])c3)n2)cc1OC` (centres undefined), the AC50 under setting [1] was 3.16 µM [falling, full curve].

`CCOc1ccccc1CN(CCc1ccc2c(c1)OCO2)Cc1cccc(OC)c1OC`: the AC50 under setting [1] was 25.1 µM [falling, single point].

As to `Cc1ccc(N(Cc2cccs2)C(=O)COc2ccccc2[N+](=O)[O-])cc1`, the AC50 under setting [1] is 12.6 µM [falling, partial curve].

In the case of `Cc1cccc(-c2nc(Cn3c(SCc4cc(C)ccc4C)nc4ccncc43)c(C)o2)c1`, the AC50 under setting [1] was 10 µM [falling, partial curve].

Turning to `COc1ccc(CCNC(=O)c2nn(C)c3c2CSc2ccccc2-3)cc1OC`, under setting [1], the AC50 was 25.1 µM [falling, single point].

On to `CCC(SC1=Nc2ccccc2C2=NC(CC(C)C)C(=O)N12)C(=O)Nc1ccc2c(c1)OCO2` (centres undefined), for which the AC50 under setting [1] is 12.6 µM [falling, partial curve].

Consider `Nc1nnc(SCC(=O)c2ccccc2)s1`, for which the AC50 under setting [1] was 15.8 µM [falling, single point].

For the molecule `Cc1ccc2c(CC(=O)OCc3nc(N)nc(Nc4ccccc4C)n3)coc2c1`, the AC50 under setting [1] was 39.8 µM [falling, single point].

For the molecule `O=C(CCCn1c2ccccc2c(=O)c2ccccc21)Nc1ccc(F)cc1Cl`, the AC50 under setting [1] was 3.98 µM [falling, full curve].

Regarding `CC(C)[C@H](NC(=O)OC(C)(C)C)c1nnc(S(=O)(=O)Cc2c(F)cccc2Cl)o1`, the AC50 is 6.31 µM [rising, single point] (measured here: IkB-luc green channel) and 10 µM [falling, partial curve] (measured here: control luc red channel).

Regarding `Clc1ccc(OCc2nnc(SCc3nnc(-c4ccccc4)o3)o2)c(Cl)c1`, under setting [1], the AC50 is 39.8 µM [falling, single point].

Take `Cc1occc1C(=O)Nc1cccc2ccccc12`: under setting [1], the AC50 was 25.1 µM [falling, partial curve].

For the molecule `CC(C)(C)c1ccc(Cn2nnc3c(=O)[nH]c(C4CCCN(C(=O)Cc5cccs5)C4)nc32)cc1` (centres undefined), under setting [1], the AC50 was 31.6 µM [falling, partial curve].

Turning to `Cc1ccc2c(COn3nnc4ccc(S(=O)(=O)N(C)C)cc43)cc(=O)oc2c1C`, the AC50 under setting [1] was 25.1 µM [falling, partial curve].

Consider `c1ccc(-c2noc(-c3ccc4ccccc4c3)n2)nc1`, for which, under setting [1], the AC50 is 2 µM [falling, full curve].

For the molecule `COc1cc(C2c3c(-c4ccccc4O)n[nH]c3C(=O)N2CCO)ccc1OCC(C)C` (centres undefined), the AC50 under setting [1] is 0.398 µM [falling, single point].

The values are drawn from PubChem BioAssay AID445 (National Center for Advancing Translational Sciences (NCATS), 2006).
